Results on 41 targets are retold here after the supplement of paper PMC6411743.

Amino acid sequences for entries named in this document (tags omitted). A change or cut given only in a name is not applied to a line headed by its entry.
UniProt Q8N3Z6: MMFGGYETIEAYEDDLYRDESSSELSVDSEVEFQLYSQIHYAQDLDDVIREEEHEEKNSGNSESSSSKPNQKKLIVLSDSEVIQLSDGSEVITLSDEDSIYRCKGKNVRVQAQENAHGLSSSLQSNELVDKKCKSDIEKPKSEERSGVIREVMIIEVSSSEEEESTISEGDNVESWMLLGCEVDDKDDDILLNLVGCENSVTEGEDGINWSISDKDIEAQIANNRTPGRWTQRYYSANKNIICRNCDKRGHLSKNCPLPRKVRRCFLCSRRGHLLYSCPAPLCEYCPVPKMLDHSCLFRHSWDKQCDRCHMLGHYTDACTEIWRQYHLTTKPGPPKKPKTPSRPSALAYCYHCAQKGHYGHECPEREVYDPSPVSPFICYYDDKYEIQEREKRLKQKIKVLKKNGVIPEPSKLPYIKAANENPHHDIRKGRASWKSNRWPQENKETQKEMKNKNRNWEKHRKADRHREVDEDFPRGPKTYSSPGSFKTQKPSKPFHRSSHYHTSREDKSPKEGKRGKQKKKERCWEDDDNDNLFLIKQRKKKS
UniProt Q8N4P3, whole entry: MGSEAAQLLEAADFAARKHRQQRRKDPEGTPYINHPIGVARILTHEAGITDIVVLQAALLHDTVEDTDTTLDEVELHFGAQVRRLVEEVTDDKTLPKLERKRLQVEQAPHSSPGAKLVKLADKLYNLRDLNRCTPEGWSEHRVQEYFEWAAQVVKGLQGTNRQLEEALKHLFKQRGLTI
UniProt Q86XZ4: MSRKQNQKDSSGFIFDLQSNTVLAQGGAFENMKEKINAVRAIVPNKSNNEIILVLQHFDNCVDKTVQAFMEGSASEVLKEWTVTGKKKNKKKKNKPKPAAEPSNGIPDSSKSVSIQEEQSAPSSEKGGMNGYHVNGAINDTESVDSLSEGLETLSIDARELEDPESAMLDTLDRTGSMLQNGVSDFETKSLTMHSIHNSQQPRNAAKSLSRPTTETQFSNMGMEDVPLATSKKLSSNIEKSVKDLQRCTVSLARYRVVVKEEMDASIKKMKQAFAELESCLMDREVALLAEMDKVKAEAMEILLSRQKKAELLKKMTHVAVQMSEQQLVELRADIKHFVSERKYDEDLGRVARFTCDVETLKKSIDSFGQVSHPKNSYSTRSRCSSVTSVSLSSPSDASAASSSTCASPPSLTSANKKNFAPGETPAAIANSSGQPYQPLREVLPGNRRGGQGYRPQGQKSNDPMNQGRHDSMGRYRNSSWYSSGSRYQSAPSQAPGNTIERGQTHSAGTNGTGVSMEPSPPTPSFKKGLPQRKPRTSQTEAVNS
UniProt Q8N668, whole entry: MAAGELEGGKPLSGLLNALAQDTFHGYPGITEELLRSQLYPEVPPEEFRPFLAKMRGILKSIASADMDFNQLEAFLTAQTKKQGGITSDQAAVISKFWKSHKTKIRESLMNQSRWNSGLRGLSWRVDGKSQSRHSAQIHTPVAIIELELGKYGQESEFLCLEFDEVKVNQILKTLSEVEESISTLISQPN
UniProt Q8IZ21: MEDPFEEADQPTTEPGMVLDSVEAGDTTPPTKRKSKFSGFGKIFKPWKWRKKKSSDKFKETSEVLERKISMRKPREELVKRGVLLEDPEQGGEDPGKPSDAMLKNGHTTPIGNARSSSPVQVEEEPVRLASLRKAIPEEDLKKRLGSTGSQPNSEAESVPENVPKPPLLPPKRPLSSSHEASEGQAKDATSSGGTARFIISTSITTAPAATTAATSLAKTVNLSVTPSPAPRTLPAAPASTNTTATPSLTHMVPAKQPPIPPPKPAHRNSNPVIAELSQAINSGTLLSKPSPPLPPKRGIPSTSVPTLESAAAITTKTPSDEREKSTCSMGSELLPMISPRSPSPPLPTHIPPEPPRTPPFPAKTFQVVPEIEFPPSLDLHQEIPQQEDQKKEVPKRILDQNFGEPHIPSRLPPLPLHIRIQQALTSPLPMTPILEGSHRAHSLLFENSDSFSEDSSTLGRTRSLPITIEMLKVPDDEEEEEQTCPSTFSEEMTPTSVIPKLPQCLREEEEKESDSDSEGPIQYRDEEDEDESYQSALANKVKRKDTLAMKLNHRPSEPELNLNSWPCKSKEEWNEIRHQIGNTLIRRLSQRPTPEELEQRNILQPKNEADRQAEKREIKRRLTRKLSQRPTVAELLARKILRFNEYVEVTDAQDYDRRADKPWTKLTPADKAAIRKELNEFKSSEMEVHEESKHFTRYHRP
UniProt Q8N6T7, whole entry: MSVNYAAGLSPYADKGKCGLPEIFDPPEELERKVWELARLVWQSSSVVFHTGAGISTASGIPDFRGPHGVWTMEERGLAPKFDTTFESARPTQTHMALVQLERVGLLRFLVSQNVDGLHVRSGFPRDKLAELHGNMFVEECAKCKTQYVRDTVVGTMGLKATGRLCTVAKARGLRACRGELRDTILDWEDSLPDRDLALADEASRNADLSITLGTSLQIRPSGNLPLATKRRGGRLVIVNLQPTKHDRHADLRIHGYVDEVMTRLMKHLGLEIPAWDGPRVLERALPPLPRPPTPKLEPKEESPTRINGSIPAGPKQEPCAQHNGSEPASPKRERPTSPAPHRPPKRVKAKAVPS
UniProt Q8N2Z9: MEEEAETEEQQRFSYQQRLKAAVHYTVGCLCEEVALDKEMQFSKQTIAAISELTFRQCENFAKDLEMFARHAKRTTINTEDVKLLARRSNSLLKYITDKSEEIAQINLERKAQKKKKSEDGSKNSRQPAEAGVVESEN
UniProt Q8IWT6: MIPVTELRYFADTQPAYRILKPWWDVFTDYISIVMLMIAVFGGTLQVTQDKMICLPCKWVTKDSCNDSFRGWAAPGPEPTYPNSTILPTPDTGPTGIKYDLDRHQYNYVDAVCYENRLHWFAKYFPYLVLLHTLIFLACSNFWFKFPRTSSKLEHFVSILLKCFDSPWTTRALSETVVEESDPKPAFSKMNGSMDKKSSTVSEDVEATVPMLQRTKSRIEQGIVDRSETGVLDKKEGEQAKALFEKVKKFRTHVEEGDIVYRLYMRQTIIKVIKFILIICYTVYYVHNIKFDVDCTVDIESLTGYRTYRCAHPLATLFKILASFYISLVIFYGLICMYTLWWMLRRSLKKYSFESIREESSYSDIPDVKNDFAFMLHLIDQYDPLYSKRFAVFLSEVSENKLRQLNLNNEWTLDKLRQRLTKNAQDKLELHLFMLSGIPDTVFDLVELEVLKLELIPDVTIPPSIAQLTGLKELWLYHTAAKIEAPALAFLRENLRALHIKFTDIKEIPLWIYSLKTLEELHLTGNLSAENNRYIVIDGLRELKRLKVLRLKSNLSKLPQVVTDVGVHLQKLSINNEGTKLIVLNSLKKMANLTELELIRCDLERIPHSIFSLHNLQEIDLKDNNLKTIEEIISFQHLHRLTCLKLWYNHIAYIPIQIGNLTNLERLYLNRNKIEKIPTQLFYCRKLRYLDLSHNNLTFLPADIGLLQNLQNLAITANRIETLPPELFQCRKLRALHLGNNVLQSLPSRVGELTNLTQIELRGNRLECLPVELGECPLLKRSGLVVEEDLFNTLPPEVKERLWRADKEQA
UniProt Q8N766: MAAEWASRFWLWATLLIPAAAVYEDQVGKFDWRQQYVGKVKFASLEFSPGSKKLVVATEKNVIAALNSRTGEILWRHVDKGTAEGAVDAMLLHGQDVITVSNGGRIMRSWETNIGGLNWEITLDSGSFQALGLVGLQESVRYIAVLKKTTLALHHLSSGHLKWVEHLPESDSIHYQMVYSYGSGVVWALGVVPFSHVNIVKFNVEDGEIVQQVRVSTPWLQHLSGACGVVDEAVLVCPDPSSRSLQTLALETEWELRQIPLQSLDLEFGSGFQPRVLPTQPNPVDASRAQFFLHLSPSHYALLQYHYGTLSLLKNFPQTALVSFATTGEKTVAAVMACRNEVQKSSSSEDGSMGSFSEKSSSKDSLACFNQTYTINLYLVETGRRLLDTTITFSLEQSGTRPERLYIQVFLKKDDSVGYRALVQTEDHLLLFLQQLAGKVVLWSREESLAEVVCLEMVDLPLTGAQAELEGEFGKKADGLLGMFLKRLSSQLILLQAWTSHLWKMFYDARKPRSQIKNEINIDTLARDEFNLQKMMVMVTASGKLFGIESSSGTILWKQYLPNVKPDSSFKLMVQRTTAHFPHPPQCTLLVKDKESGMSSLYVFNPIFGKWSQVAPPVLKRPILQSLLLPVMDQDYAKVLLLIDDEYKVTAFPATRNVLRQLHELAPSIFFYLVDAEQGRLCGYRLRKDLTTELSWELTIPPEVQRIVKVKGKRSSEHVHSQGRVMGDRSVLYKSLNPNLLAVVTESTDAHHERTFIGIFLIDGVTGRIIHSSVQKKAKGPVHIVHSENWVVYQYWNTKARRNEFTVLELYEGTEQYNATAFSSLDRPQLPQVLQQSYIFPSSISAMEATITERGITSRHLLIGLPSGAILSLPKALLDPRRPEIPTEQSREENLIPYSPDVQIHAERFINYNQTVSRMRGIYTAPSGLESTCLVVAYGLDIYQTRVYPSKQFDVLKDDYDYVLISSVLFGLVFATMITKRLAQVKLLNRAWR
UniProt Q8IWV7: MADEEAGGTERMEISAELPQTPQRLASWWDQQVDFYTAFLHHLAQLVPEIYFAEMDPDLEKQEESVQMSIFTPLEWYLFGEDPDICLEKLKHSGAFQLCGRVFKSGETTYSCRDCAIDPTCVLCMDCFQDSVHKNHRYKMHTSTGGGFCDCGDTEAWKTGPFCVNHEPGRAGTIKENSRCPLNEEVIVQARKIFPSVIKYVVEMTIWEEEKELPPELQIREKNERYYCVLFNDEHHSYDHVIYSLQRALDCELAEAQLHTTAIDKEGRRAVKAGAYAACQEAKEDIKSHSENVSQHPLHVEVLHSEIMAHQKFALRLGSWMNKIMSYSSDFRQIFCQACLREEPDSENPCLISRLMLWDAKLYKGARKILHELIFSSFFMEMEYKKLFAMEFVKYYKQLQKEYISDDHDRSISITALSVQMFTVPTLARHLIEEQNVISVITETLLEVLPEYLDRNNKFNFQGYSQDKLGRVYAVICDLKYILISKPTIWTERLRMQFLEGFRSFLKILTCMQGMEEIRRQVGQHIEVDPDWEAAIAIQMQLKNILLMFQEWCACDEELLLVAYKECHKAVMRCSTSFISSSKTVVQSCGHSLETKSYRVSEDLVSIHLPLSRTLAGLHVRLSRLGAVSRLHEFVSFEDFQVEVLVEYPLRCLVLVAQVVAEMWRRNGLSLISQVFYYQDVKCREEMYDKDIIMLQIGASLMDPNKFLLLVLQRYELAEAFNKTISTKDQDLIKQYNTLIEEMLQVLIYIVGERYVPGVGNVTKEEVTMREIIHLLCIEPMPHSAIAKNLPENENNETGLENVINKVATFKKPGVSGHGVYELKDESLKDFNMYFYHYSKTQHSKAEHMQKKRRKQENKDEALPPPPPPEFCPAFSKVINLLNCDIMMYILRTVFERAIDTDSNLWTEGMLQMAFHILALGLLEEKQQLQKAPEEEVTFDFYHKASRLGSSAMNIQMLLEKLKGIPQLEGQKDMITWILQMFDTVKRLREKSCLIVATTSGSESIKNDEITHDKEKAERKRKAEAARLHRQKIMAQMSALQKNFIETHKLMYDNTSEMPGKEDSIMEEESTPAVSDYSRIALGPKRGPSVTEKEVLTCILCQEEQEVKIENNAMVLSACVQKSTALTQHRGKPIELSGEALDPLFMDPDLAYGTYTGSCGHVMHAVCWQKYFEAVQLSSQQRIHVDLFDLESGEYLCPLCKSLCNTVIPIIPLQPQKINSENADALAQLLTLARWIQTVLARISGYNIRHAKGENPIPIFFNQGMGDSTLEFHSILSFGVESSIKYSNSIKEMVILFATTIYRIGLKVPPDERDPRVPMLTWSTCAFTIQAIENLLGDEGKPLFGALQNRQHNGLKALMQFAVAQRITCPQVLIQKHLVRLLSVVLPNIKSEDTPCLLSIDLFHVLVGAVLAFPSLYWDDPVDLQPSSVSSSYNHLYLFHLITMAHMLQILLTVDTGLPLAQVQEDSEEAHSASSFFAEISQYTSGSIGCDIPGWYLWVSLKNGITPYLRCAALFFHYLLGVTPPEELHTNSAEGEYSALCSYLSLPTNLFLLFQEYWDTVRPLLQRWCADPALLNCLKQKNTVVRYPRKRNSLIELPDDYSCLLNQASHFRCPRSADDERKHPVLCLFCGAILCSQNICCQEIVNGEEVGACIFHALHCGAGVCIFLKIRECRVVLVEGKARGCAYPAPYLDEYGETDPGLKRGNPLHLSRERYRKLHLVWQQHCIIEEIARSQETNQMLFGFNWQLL
UniProt Q8N0X4: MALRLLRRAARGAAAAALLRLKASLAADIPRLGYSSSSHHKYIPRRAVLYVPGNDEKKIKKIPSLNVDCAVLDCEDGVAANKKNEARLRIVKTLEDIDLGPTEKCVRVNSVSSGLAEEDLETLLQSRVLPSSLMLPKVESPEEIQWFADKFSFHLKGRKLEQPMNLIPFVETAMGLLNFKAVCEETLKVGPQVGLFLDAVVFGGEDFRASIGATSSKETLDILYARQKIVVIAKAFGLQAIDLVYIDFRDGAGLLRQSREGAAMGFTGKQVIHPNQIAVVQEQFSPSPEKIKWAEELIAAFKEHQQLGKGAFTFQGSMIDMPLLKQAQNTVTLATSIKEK

± gives the standard deviation of the averaged measurements. This is a selection; strong and weak results do not stand in their true shares. Most values lie at the level of the controls, where differences are scatter.

Compound in the assay: Nc1ncnc2c1ncn2[C@@H]1O[C@H](COP(=O)(O)OP(=O)(O)NP(=O)(O)O)[C@@H](O)[C@H]1O [adenylyl imidodiphosphate]
As to the kind of experiment: NP40-soluble protein abundance relative to vehicle (solubility fold change) (ratio); higher = more soluble protein in presence of AMP-PNP. The gist of the method: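 In three independent experiments, Jurkat crude lysate made by Dounce homogenisation was treated for 10 min at room temperature and then 3 min at 37 °C with eight concentrations ranging from 0.1 to 10 mM. It was then solubilised with 0.8% NP40 plus benzonase for 60 min at 4 °C and ultracentrifuged. The supernatant was TMT-labelled for LC-MS/MS, and each value is the fold change against the detergent-processed vehicle for the same replicate, using vsn-normalised intensities.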

For AGGF1 (UniProt Q8N302), the NP40-soluble protein abundance reads like this: (concentration: 0.1mM) 1 ± 0.032; (concentration: 0.5mM) 1.005 ± 0.0028.
The matching figures for SMYD4 (UniProt Q8IYR2): 0.98 ± 0.026 and 0.98 ± 0.027.
Taken in the same sequence, the figures for SYTL1 (UniProt Q8IYJ3) were 0.998 ± 0.022 and 0.989 ± 0.022.
As for ZCCHC7 (UniProt Q8N3Z6), the NP40-soluble protein abundance came out at 1.02 ± 0.016 (concentration: 0.1mM) and 1.012 ± 0.0054 (concentration: 0.5mM).
As for UniProt Q86VR2, the NP40-soluble protein abundance amounted to 1.01 ± 0.014 (concentration: 0.1mM) and 0.9938 ± 0.0078 (concentration: 0.5mM).
Taken in the same sequence, the figures for UniProt Q8N4P3 and related entries were 0.998 ± 0.025 and 0.992 ± 0.055.
SPATS2 (UniProt Q86XZ4): the NP40-soluble protein abundance reads like this: (concentration: 0.1mM) 1.01 ± 0.027; (concentration: 0.5mM) 1.04 ± 0.055.
Turning to ZC3H3 (UniProt Q8IXZ2), the NP40-soluble protein abundance (concentration: 0.1mM) is 1.03 ± 0.031 and the NP40-soluble protein abundance (concentration: 0.5mM) turned out to be 0.97808 ± 0.00093.
Taken in the same sequence, the figures for LIX1L (UniProt Q8IVB5) were 0.9873 ± 0.0039 and 0.999 ± 0.019.
The matching figures for COMMD1 (UniProt Q8N668): 0.952 ± 0.043 and 0.9754 ± 0.0056.
Consider UniProt Q8IXJ6 and related entries, for which the NP40-soluble protein abundance runs as follows: (concentration: 0.1mM) 1.01 ± 0.046; (concentration: 0.5mM) 1.01 ± 0.024.
On to PALB2 (UniProt Q86YC2), for which the NP40-soluble protein abundance turned out to be 0.995 ± 0.025 (concentration: 0.1mM) and 0.9895 ± 0.0027 (concentration: 0.5mM).
In the case of UniProt Q8IZ21 and related entries, the NP40-soluble protein abundance is, setting by setting: (concentration: 0.1mM) 0.979 ± 0.025; (concentration: 0.5mM) 0.954 ± 0.082.
Taken in the same sequence, the figures for UniProt Q8NBF6 and related entries were 0.979 ± 0.02 and 0.981 ± 0.023.
Consider UniProt Q8N6T7 and related entries, for which the NP40-soluble protein abundance (concentration: 0.1mM) was found to be 0.977 ± 0.023 and the NP40-soluble protein abundance (concentration: 0.5mM) is 0.908 ± 0.019.
Taken in the same sequence, the figures for MRPL41 (UniProt Q8IXM3) were 0.995 ± 0.026 and 1.01 ± 0.02.
The matching figures for UniProt Q8N2Z9: 0.949 ± 0.019 and 0.958 ± 0.037.
LRRC8A (UniProt Q8IWT6): the NP40-soluble protein abundance (concentration: 0.1mM) was determined as 0.992 ± 0.011 and the NP40-soluble protein abundance (concentration: 0.5mM) amounted to 0.989 ± 0.029.
For the target UniProt Q8N766 and related entries, the NP40-soluble protein abundance by setting is: (concentration: 0.1mM) 1.01 ± 0.02; (concentration: 0.5mM) 0.987 ± 0.044.
For UniProt Q8IX12 and related entries, the NP40-soluble protein abundance by setting is: (concentration: 0.1mM) 0.985 ± 0.02; (concentration: 0.5mM) 0.965 ± 0.018.
The matching figures for UniProt Q8IWV8 and related entries: 0.991 ± 0.025 and 0.981 ± 0.06.
The matching figures for UBR1 (UniProt Q8IWV7): 1.02 ± 0.031 and 1.01 ± 0.059.
Taken in the same sequence, the figures for UniProt Q86X55 and related entries were 0.997 ± 0.027 and 0.976 ± 0.13.
Regarding UniProt Q8N5C7 and related entries, the NP40-soluble protein abundance (concentration: 0.1mM) stood at 1.03 ± 0.013 and the NP40-soluble protein abundance (concentration: 0.5mM) is 1.02 ± 0.052.
Taken in the same sequence, the figures for UniProt Q8IYS2 and related entries were 1.02 ± 0.014 and 0.975 ± 0.042.
Taken in the same sequence, the figures for UniProt Q8IYB5-2|Q8IYB5-3 were 0.998 ± 0.02 and 0.996 ± 0.038.
Taken in the same sequence, the figures for UniProt Q8IVS2 were 1.01 ± 0.018 and 1.02 ± 0.063.
In the case of UniProt Q8IUH3-3, the NP40-soluble protein abundance is, setting by setting: (concentration: 0.1mM) 1.006 ± 0.0094; (concentration: 0.5mM) 1.016 ± 0.0085.
Regarding UniProt Q86VV8 and related entries, the NP40-soluble protein abundance (concentration: 0.1mM) is 0.981 ± 0.042 and the NP40-soluble protein abundance (concentration: 0.5mM) stood at 0.953 ± 0.088.
Taken in the same sequence, the figures for UniProt Q8IVB4 were 0.983 ± 0.022 and 0.994 ± 0.018.
Taken in the same sequence, the figures for CLYBL (UniProt Q8N0X4) were 0.966 ± 0.015 and 0.977 ± 0.044.
Taken in the same sequence, the figures for DHX37 (UniProt Q8IY37) were 1.05 ± 0.039 and 1.03 ± 0.041.
Regarding UniProt Q86Y56, the NP40-soluble protein abundance runs as follows: (concentration: 0.1mM) 1.04 ± 0.011; (concentration: 0.5mM) 1.02 ± 0.031.
Taken in the same sequence, the figures for RCOR2 (UniProt Q8IZ40) were 1.01 ± 0.046 and 0.987 ± 0.048.
Taken in the same sequence, the figures for NKAP (UniProt Q8N5F7) were 0.991 ± 0.012 and 1.03 ± 0.064.
The matching figures for UBR7 (UniProt Q8N806): 0.9777 ± 0.006 and 0.999 ± 0.013.
MLKL (UniProt Q8NB16): the NP40-soluble protein abundance was determined as 1.02 ± 0.033 (concentration: 0.1mM) and 0.99 ± 0.027 (concentration: 0.5mM).
Taken in the same sequence, the figures for SRBD1 (UniProt Q8N5C6) were 0.985 ± 0.025 and 0.992 ± 0.054.
As for UniProt Q86U38, the NP40-soluble protein abundance came to 1.04 ± 0.019 (concentration: 0.1mM) and 1.03 ± 0.022 (concentration: 0.5mM).
The matching figures for UniProt Q8N0X7: 0.945 ± 0.055 and 1.021 ± 0.0063.
As to UniProt Q8IX18 and related entries, the NP40-soluble protein abundance by setting is: (concentration: 0.1mM) 1.02 ± 0.037; (concentration: 0.5mM) 0.951 ± 0.07.
